One substance from PMC6954236 can be followed below.

Amino acid sequences for entries named in this document (tags omitted).
UniProt Q96KS0: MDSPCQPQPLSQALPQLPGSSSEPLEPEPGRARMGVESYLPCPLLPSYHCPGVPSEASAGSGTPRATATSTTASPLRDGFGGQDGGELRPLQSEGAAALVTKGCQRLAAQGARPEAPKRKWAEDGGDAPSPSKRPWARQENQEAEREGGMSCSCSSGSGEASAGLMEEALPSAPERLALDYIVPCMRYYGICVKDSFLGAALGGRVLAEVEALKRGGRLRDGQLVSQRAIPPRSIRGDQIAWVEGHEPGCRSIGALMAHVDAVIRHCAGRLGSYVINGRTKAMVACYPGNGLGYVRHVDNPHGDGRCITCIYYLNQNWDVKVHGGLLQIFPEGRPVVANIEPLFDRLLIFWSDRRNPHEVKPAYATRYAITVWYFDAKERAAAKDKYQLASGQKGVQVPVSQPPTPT
UniProt Q9P2J5: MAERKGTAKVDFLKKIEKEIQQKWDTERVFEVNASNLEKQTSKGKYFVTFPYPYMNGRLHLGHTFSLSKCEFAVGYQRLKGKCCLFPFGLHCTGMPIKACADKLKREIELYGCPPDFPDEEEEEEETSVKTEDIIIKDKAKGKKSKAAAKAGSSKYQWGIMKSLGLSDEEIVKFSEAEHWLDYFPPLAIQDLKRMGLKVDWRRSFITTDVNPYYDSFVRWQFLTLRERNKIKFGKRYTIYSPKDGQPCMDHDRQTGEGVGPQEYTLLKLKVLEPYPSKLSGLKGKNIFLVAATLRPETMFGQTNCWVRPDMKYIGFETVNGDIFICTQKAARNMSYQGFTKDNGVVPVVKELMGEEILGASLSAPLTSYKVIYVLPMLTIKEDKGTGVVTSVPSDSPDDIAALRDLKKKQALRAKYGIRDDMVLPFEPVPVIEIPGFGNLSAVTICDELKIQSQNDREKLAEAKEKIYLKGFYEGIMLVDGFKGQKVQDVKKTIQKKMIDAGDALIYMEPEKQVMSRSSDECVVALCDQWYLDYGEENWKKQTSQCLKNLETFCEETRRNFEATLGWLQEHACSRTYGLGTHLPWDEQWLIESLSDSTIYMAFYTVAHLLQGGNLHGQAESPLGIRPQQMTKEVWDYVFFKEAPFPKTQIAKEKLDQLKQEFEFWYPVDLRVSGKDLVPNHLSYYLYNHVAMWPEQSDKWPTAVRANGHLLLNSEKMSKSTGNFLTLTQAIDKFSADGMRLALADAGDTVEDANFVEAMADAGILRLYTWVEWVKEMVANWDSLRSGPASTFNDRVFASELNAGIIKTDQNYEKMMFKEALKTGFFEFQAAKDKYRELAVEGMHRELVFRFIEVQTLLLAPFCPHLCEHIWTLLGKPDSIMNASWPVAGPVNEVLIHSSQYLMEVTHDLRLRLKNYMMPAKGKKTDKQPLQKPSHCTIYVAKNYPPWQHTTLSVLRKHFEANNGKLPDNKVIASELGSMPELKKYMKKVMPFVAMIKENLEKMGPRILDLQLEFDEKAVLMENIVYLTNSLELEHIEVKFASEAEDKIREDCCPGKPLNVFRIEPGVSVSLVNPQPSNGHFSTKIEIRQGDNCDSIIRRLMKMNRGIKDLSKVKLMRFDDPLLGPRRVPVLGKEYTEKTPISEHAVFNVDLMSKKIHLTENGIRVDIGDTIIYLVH

These are yes or no findings as the source states them, for the method shown. In cells and extracts the contact can be indirect. Some results given as binding are weak or reduced against the parent protein; the word gives no strength.

The assay addresses flag-PHD1^WT (prolyl hydroxylase domain isoform 1) (UniProt Q96KS0). The assay can be described thus: co-IP; HEK293T co-transfected with Myc-LRS and flag-PHD1 (WT or MUT) for 72 h; 300 µg lysate protein on ANTI-FLAG M2 Affinity Gel at 4 °C overnight; washed 3 times in lysis buffer with 50 mM NaCl added; blot with anti-myc; cells untreated, treated with DMOG or amino acid starved for 4 h.

On to “myc-LRS (leucyl tRNA synthetase) (from UniProt Q9P2J5 1-1176) (enzyme)”, for which the binding result is on record as “binds weakly”.
